PubChem BioAssay AID504774 – Drosophila RNAi Screening Center – 2011

- Assay: 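Fly genes whose loss alters survival after alkylation damage to DNA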 (primary screen)
- Cell system: Drosophila Kc167 cells
- Knock-down reagent: long dsRNA against Drosophila genes, about 0.25 µg dsRNA per well
- Time to read-out: about 6 days: 3 days knock-down, then 3 days with or without MMS
- Conditions: methyl methanesulphonate 0.004% (w/v) for 3 days after knock-down
- Measurement: 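ATP-dependent luminescence as a measure of live cells in MMS-exposed wells, quantile normalised within each plate, with replicate values also given as a mean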
- Scale: mean viability with MMS and viability with MMS: higher = more surviving cells after MMS
In all, the deposit lists about 23,000 reagents; shown is a random part of those with a known target gene and a result. 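Values are quantile-normalised luminescence on an arbitrary scale; higher means more cells surviving MMS.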 The numbers tell different reagents against one gene apart. A plus sign joins genes that one reagent is predicted to hit. Not all columns of the deposit are shown.

| gene knocked down | dsRNA no. | mean viability with MMS | viability with MMS, replicate 1 |
| --- | --- | --- | --- |
| lush | 1 | 3.55e6 | 3.84e6 |
| Muc11A | 1 | 3.64e6 | 4.10e6 |
| CG14183 | 1 | 3.75e6 | 4.16e6 |
| CG7332 | 1 | 3.59e6 | 4.19e6 |
| Sgt | 1 | 3.26e6 | 3.84e6 |
| CG11586 | 1 | 3.66e6 | 4.01e6 |
| Sgf11 | 1 | 3.47e6 | 3.91e6 |
| CG31342 | 1 | 3.47e6 | 3.96e6 |
| CG31342 | 2 | 3.49e6 | 3.78e6 |
| ebd1 | 1 | 3.41e6 | 3.93e6 |
| CG14204 | 1 | 3.46e6 | 3.93e6 |
| CG6567 + CG4565 | 1 | 3.56e6 | 4.08e6 |

Continued (3 carried over from the part before).
| gene knocked down | dsRNA no. | mean viability with MMS | viability with MMS, replicate 1 |
| --- | --- | --- | --- |
| ebd1 | 1 | 3.41e6 | 3.93e6 |
| CG14204 | 1 | 3.46e6 | 3.93e6 |
| CG6567 + CG4565 | 1 | 3.56e6 | 4.08e6 |
| Gyc76C + CG42637 | 1 | 3.65e6 | 4.16e6 |
| zye | 1 | 3.75e6 | 4.24e6 |
| CG6337 | 1 | 3.82e6 | 4.39e6 |
| CG6337 | 2 | 3.38e6 | 3.94e6 |
| Ugt37B1 | 1 | 3.51e6 | 3.98e6 |
| TfIIFalpha | 1 | 2.90e6 | 3.57e6 |
| scramb1 | 1 | 3.56e6 | 4.02e6 |
| scramb1 | 2 | 3.67e6 | 4.06e6 |
| scramb1 | 3 | 3.45e6 | 3.89e6 |
| Daao1 | 1 | 3.49e6 | 3.86e6 |
| PlexB | 1 | 3.54e6 | 4.00e6 |
| P32 | 1 | 3.65e6 | 4.16e6 |
| CG6701 | 1 | 3.52e6 | 3.98e6 |
| CatB | 1 | 3.56e6 | 4.17e6 |
| CG34462 | 1 | 3.59e6 | 4.23e6 |
| out | 1 | 3.83e6 | 4.31e6 |
